From the supplement of paper PMC10849652
The other results are listed elsewhere or left out.

Chains of the proteins cited; added tags and fusions are not shown. Lines headed by an entry give the natural chain unless they say otherwise; changes in a name come on top.
UniProt Q6P4F2: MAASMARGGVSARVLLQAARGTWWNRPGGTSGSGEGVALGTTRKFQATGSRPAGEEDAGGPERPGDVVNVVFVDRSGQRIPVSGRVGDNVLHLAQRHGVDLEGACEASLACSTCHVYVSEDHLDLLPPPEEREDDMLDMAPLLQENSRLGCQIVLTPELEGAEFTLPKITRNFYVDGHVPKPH
UniProt Q9H479: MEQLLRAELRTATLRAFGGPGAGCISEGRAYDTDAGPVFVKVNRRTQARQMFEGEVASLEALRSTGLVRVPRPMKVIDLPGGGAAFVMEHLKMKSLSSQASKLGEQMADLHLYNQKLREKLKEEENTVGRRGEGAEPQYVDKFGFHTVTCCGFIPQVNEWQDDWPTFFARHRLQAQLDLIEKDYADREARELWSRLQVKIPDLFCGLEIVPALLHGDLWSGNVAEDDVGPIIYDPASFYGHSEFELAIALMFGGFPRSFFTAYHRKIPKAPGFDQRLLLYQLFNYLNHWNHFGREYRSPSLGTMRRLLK
UniProt Q9BXW9: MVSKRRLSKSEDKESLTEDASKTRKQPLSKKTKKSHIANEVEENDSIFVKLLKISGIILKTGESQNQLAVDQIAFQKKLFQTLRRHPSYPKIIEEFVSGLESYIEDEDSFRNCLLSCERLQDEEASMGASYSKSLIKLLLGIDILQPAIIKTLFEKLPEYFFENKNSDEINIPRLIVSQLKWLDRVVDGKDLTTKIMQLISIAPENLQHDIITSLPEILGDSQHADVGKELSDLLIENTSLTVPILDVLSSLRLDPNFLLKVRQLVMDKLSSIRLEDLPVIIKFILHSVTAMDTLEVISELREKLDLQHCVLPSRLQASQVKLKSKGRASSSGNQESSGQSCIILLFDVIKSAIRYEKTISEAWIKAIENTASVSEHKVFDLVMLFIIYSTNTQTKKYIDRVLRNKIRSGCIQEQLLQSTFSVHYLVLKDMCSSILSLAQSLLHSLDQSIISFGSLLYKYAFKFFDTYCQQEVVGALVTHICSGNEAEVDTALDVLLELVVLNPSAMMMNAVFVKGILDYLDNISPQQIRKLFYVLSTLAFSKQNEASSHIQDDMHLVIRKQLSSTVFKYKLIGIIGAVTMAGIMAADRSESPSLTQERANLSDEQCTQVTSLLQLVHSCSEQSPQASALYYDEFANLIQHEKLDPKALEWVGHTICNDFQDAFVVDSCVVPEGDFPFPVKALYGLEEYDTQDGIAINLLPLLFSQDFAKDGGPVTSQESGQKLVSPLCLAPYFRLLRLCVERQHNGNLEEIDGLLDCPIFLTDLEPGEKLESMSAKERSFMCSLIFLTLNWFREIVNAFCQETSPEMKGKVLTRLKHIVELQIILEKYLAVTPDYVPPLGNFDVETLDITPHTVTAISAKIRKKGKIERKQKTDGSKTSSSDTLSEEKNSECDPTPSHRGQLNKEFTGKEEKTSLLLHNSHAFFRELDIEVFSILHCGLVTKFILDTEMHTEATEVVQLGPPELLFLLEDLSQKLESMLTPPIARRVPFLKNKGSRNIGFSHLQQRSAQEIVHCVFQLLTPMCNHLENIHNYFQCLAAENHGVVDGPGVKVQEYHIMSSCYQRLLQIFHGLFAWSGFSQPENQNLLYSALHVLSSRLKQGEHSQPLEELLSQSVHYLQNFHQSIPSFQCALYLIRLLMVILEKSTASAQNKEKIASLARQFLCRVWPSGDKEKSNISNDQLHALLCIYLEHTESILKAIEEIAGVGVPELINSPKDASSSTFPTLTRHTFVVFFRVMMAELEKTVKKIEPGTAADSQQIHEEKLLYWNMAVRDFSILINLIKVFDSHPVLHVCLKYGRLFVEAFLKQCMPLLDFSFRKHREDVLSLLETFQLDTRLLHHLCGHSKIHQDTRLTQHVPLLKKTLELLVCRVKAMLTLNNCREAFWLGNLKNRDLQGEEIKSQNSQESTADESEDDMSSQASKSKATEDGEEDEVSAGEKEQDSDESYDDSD
UniProt Q6PIJ6: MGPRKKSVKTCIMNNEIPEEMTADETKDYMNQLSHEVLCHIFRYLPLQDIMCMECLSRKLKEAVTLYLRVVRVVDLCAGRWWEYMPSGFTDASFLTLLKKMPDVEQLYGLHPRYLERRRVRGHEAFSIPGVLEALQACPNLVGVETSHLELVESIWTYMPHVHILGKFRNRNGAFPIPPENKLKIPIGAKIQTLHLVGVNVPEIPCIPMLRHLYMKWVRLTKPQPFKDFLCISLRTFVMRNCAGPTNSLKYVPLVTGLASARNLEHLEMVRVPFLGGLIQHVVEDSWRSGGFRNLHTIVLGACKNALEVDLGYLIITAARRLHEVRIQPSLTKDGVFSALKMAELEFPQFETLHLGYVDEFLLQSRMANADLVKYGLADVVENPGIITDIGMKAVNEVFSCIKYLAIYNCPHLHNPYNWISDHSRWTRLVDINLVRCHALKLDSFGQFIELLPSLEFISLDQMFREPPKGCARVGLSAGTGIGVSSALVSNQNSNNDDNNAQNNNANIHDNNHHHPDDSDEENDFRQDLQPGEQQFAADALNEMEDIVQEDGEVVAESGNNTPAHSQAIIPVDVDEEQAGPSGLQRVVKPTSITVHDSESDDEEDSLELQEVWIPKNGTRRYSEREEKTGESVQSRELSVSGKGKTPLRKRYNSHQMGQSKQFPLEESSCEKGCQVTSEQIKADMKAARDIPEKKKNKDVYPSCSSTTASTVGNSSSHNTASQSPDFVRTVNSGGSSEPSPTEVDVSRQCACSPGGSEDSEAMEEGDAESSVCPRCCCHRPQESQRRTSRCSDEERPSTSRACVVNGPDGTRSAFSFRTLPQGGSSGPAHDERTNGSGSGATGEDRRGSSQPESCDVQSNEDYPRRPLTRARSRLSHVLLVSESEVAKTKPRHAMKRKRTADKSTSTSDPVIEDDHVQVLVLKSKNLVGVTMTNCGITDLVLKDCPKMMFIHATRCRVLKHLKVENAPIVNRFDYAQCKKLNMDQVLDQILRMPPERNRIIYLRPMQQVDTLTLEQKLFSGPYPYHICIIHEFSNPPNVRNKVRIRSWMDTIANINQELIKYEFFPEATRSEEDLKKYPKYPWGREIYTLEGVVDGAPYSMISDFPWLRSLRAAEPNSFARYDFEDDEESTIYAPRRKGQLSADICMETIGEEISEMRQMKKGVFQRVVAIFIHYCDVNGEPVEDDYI
UniProt Q9Y680: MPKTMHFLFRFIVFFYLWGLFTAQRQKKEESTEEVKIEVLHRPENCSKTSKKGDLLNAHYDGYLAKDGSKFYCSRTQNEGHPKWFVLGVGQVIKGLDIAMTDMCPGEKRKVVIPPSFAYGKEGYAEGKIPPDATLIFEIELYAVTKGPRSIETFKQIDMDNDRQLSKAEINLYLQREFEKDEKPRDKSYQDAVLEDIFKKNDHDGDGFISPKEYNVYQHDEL
UniProt P02751, whole entry, looked up: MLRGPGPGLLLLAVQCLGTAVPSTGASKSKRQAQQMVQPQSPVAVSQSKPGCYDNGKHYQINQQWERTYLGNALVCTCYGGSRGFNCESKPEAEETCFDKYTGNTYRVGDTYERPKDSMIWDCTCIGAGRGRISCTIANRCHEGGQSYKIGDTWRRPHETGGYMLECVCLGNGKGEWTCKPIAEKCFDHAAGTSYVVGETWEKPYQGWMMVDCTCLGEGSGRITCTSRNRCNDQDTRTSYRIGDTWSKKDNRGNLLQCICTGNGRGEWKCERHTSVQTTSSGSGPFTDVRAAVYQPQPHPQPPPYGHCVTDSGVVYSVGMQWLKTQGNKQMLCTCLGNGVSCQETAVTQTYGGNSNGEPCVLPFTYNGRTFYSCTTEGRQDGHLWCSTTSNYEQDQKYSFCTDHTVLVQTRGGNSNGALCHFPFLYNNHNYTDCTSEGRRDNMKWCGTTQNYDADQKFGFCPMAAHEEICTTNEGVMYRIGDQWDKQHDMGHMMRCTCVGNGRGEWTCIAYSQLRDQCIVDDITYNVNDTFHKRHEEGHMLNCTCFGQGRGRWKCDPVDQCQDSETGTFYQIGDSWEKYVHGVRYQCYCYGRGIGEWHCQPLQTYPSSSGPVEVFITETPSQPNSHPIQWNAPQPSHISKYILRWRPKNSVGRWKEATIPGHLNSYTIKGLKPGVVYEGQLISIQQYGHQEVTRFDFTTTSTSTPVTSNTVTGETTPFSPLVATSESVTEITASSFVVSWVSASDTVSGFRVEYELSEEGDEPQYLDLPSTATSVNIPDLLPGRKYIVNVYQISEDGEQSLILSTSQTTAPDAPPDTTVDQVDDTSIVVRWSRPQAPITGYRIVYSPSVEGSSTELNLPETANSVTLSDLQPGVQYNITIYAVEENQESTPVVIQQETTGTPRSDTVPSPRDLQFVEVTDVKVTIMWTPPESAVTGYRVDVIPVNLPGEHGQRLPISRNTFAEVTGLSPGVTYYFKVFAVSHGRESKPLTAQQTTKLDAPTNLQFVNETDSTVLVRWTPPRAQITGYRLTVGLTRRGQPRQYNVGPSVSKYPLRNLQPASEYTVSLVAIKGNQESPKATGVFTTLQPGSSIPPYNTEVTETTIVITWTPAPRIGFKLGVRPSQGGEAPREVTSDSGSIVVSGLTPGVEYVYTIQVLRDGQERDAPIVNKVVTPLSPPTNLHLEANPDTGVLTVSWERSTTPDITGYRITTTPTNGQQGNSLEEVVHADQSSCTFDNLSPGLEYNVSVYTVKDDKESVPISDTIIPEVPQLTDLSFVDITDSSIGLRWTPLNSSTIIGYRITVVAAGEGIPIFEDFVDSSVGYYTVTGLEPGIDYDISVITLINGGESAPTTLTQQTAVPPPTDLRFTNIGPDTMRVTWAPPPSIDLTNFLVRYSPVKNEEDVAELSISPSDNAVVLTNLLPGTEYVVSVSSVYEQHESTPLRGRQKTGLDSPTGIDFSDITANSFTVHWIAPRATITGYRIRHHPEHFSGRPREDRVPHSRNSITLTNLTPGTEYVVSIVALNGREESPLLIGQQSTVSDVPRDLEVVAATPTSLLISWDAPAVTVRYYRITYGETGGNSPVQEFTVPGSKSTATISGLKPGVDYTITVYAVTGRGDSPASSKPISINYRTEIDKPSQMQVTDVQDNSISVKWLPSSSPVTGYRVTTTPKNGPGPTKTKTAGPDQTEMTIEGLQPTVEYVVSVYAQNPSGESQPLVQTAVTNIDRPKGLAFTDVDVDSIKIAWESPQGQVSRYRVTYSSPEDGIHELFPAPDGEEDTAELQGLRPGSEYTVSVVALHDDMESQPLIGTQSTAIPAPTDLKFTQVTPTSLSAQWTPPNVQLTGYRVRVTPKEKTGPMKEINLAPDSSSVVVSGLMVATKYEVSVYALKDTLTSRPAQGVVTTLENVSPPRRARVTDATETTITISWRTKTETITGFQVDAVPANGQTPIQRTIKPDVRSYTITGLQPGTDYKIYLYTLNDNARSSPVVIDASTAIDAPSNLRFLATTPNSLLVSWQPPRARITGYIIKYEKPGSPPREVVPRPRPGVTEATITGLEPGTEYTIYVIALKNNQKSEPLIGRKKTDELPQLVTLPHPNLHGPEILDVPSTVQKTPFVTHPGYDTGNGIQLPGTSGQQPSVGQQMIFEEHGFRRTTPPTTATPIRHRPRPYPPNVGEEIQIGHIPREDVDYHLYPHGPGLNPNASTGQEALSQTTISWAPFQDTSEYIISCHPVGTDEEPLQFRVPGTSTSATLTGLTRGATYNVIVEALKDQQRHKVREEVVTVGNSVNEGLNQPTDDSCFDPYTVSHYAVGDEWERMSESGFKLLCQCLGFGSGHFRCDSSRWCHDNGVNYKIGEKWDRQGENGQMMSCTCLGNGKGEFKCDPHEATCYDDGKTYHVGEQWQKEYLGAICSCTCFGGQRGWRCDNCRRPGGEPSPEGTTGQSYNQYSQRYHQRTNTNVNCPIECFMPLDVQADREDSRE
UniProt Q5T0N5: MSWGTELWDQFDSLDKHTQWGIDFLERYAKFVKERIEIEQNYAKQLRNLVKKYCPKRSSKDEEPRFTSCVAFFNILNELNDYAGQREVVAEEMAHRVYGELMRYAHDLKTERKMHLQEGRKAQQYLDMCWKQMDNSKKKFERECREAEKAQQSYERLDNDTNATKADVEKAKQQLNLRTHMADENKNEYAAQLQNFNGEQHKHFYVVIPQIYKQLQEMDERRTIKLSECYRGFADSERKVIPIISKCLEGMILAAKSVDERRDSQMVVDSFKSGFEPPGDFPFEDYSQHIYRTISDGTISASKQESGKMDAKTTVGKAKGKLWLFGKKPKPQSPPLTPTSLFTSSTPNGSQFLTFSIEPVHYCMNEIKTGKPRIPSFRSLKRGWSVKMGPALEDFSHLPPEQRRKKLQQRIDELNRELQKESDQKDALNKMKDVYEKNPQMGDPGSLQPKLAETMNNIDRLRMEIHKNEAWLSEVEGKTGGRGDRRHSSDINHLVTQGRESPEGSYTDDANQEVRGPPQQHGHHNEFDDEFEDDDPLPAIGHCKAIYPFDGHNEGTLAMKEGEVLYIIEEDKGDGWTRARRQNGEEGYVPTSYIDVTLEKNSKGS
UniProt P62942, whole entry, looked up: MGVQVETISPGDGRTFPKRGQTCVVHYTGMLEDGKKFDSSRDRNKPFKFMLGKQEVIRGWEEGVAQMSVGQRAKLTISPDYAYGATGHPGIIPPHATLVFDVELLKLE

Experiments:
Assay in all cases: log2 fold change, soluble protein after heating vs DMSO (PISA); higher = thermal stabilisation; K562 lysate, 10 uM; active = over 0.2 and 3.5 SD of the protein, either way, in both replicates (recomputed)
erlotinib = compound: C#Cc1cccc(Nc2ncnc3cc(OCCOC)c(OCCOC)cc23)c1 [erlotinib]
Outline: (§1)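 Log-two fold change in thermal stability relative to solvent controls is reported from duplicates. For each sample, crude K562 extract from dounce-homogenised pellets in PBS pH 7.4 with 1 mM MgCl2, at 1 mg/mL protein, was treated with 10 μM compound for 30 min. Aliquots heated for 3 min across 48°C-58°C were pooled, brought to 0.5% NP-40 at 4°C and cleared at 21,000xg for 90 min. The supernatant was quantified by TMTpro 16plex LC-MS/MS with channel sums equalised.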

[1] = compound: C/C(=N\NC(=O)C1=CC(=CC=C1)S(=O)(=O)N2CCOCC2)/C3=C(C=CC(=C3)Cl)O
Outline: as §1

[2] = compound: C1=CC(=CC=C1C2=NC3=C(N2)C=C(C=C3)C(=O)N)OC4=CC=C(C=C4)Cl
Outline: as §1

[3] = compound: C1=CC2=C(C=CC(=C2)/C=C\3/C(=O)NC(=NCC4=CC=CS4)S3)N=C1
Outline: as §1

[4] = compound: C1=CC2=NC=CN=C2C=C1/C=C/3\C(=O)NC(=O)S3
Outline: as §1

[5] = compound: C1=CC=C(C=C1)C2=NC(=C(N2)C3=CC=NC=C3)C4=CC(=C(C=C4)Cl)O
Outline: as §1

[6] = compound: C1=CC=C2C(=C1)C3=NNC4=CC=CC(=C43)C2=O
Outline: as §1

[7] = compound: C1CCN(C1)C(=O)NC2=CC=CC(=C2)NC3=NC=C(C(=N3)NCCC4=CN=CN4)Br
Outline: as §1

[8] = compound: C1CN(CCC1(CC2=CC=C(C=C2)Cl)N)C3=NC=NC4=C3C=CN4
Outline: as §1

IRAK-1-4 Inhibitor I = compound: C1COCCN1CCN2C3=CC=CC=C3N=C2NC(=O)C4=CC(=CC=C4)[N+](=O)[O-] [IRAK-1-4 Inhibitor I]
Outline: as §1

Measured: log2 fold change

FER (UniProt P16591)
inactive: erlotinib 0.157 | [1] 0.006 | [2] -0.223 | [3] -0.107 | [4] -0.197 | [5] -0.196 | [6] 0.047 | [7] -0.009 | [8] -0.072 | IRAK-1-4 Inhibitor I 0.311

FDX2 (UniProt Q6P4F2)
inactive: erlotinib -0.051 | [1] 0.063 | [2] 0.044 | [3] 0.065 | [4] -0.009 | [5] -0.041 | [6] -0.054 | [7] -0.402 | [8] -0.17 | IRAK-1-4 Inhibitor I 0.05

FCHO1 (UniProt O14526)
inactive: erlotinib 0.062 | [1] 0.034 | [2] 0.045 | [3] -0.055 | [4] 0.024 | [5] 0.065 | [6] -0.064 | [7] -0.044 | [8] -0.022 | IRAK-1-4 Inhibitor I -0.021

FLAD1 (UniProt Q8NFF5)
inactive: erlotinib 0.001 | [1] -0.108 | [2] -0.047 | [3] -0.054 | [4] -0.035 | [5] 0.012 | [6] 0.045 | [7] -0.028 | [8] -0.027 | IRAK-1-4 Inhibitor I 0.001

FN3K (UniProt Q9H479)
inactive: erlotinib 0 | [1] 0.028 | [2] 0.047 | [3] -0.005 | [4] 0 | [5] 0.019 | [6] -0.007 | [7] 0.015 | [8] -0.001 | IRAK-1-4 Inhibitor I 0.001

FBXO22 (UniProt Q8NEZ5)
inactive: erlotinib 0.042 | [1] -0.022 | [2] 0.048 | [3] 0.016 | [4] 0.02 | [5] -0.002 | [6] -0.01 | [7] 0.029 | [8] 0.049 | IRAK-1-4 Inhibitor I 0.007

FANCD2 isoform 1 (UniProt Q9BXW9)
inactive: erlotinib 0.059 | [1] 0.002 | [2] 0.019 | [3] -0.049 | [4] 0.01 | [5] 0.006 | [6] -0.092 | [7] -0.062 | [8] 0.095 | IRAK-1-4 Inhibitor I 0.036

FLNC (UniProt Q14315)
inactive: erlotinib -0.009 | [1] -0.004 | [2] 0.019 | [3] 0.001 | [4] 0 | [5] 0 | [6] 0.019 | [7] 0.011 | [8] 0.016 | IRAK-1-4 Inhibitor I 0.005

FIGNL1 (UniProt Q6PIW4)
inactive: erlotinib -0.008 | [1] -0.019 | [2] -0.025 | [3] 0.005 | [4] -0.011 | [5] -0.005 | [6] -0.015 | [7] 0.035 | [8] 0.006 | IRAK-1-4 Inhibitor I 0.008

FBXO38 (UniProt Q6PIJ6)
inactive: erlotinib 0.102 | [1] 0.041 | [2] 0.013 | [3] -0.047 | [4] -0.041 | [5] 0.06 | [6] 0.077 | [7] -0.06 | [8] 0.021 | IRAK-1-4 Inhibitor I -0.052

FHL2 (UniProt Q14192)
inactive: erlotinib 0.005 | [1] -0.009 | [2] 0.07 | [3] -0.014 | [4] -0.015 | [5] -0.053 | [6] -0.008 | [7] -0.035 | [8] -0.005 | IRAK-1-4 Inhibitor I -0.002

FKBP7 (UniProt Q9Y680)
inactive: erlotinib -0.062 | [1] -0.006 | [2] -0.013 | [3] 0.011 | [4] -0.042 | [5] 0.01 | [6] -0.01 | [7] -0.015 | [8] 0.011 | IRAK-1-4 Inhibitor I -0.005

FDPS (UniProt P14324)
inactive: erlotinib 0.042 | [1] 0.082 | [2] -0.029 | [3] 0.025 | [4] -0.006 | [5] 0.001 | [6] 0 | [7] 0.001 | [8] 0.019 | IRAK-1-4 Inhibitor I 0.051

FN1 (UniProt P02751)
inactive: erlotinib -0.015 | [1] -0.054 | [2] 0.025 | [3] 0.053 | [4] 0.113 | [5] 0.034 | [6] 0.059 | [7] -0.06 | [8] -0.007 | IRAK-1-4 Inhibitor I -0.025

FIP1L1 (UniProt Q6UN15)
inactive: erlotinib 0.014 | [1] -0.1 | [2] 0.018 | [3] -0.016 | [4] -0.013 | [5] 0.001 | [6] 0.006 | [7] -0.049 | [8] 0.015 | IRAK-1-4 Inhibitor I 0.009

Quoted from the entries so far (2 entries):
FN1 (UniProt P02751)
inactive: erlotinib -0.015 | [1] -0.054 | [2] 0.025 | [3] 0.053 | [4] 0.113 | [5] 0.034 | [6] 0.059 | [7] -0.06 | [8] -0.007 | IRAK-1-4 Inhibitor I -0.025

FIP1L1 (UniProt Q6UN15)
inactive: erlotinib 0.014 | [1] -0.1 | [2] 0.018 | [3] -0.016 | [4] -0.013 | [5] 0.001 | [6] 0.006 | [7] -0.049 | [8] 0.015 | IRAK-1-4 Inhibitor I 0.009

The listing continues:

FBLL1 (UniProt A6NHQ2)
inactive: erlotinib -0.003 | [1] -0.015 | [2] -0.008 | [3] 0.059 | [4] 0.075 | [5] -0.031 | [6] -0.031 | [7] 0.021 | [8] 0.022 | IRAK-1-4 Inhibitor I -0.004

FNBP1L (UniProt Q5T0N5)
inactive: erlotinib 0.015 | [1] -0.018 | [2] 0.013 | [3] 0.031 | [4] 0.044 | [5] 0.066 | [6] 0 | [7] -0.012 | [8] -0.061 | IRAK-1-4 Inhibitor I -0.016

FLNB isoform 8 (UniProt O75369)
inactive: erlotinib 0.003 | [1] 0.006 | [2] 0.013 | [3] 0 | [4] -0.002 | [5] -0.009 | [6] 0.01 | [7] -0.008 | [8] 0.001 | IRAK-1-4 Inhibitor I 0.008

FKBP1A (UniProt P62942)
inactive: erlotinib -0.024 | [1] 0.063 | [2] 0.015 | [3] -0.061 | [4] 0 | [5] 0.024 | [6] 0.091 | [7] -0.044 | [8] 0.062 | IRAK-1-4 Inhibitor I 0.071

FBXL18 isoform 4 (UniProt Q96ME1)
inactive: erlotinib 0.007 | [1] -0.034 | [2] 0.035 | [3] -0.058 | [4] -0.029 | [5] 0.011 | [6] -0.005 | [7] -0.007 | [8] 0.036 | IRAK-1-4 Inhibitor I 0.025

FDX1 (UniProt P10109)
inactive: erlotinib -0.05 | [1] 0.008 | [2] 0.077 | [3] 0.034 | [4] -0.073 | [5] -0.043 | [6] -0.01 | [7] -0.017 | [8] 0.019 | IRAK-1-4 Inhibitor I 0.029

FN3KRP (UniProt Q9HA64)
inactive: erlotinib -0.013 | [1] 0.084 | [2] -0.014 | [3] -0.003 | [4] -0.013 | [5] 0.009 | [6] 0.003 | [7] 0.025 | [8] 0.031 | IRAK-1-4 Inhibitor I -0.002

FARSA (UniProt Q9Y285)
inactive: erlotinib 0.045 | [1] -0.001 | [2] -0.054 | [3] 0.009 | [4] 0 | [5] 0.119 | [6] -0.005 | [7] 0.009 | [8] -0.023 | IRAK-1-4 Inhibitor I -0.018

FGGY isoform 3 (UniProt Q96C11)
inactive: erlotinib -0.049 | [1] -0.014 | [2] 0.045 | [3] 0.036 | [4] -0.219 | [5] -0.01 | [6] -0.094 | [7] -0.088 | [8] -0.086 | IRAK-1-4 Inhibitor I 0.002

FAT2 (UniProt Q9NYQ8)
inactive: erlotinib 0.215 | [1] -0.092 | [2] -0.311 | [3] 0.038 | [4] -0.076 | [5] -0.135 | [6] -0.147 | [7] -0.007 | [8] 0.01 | IRAK-1-4 Inhibitor I -0.016

FAR1 (UniProt Q8WVX9)
inactive: erlotinib 0.044 | [1] 0.063 | [2] -0.226 | [3] -0.033 | [4] 0.107 | [5] 0.013 | [6] -0.023 | [7] -0.102 | [8] 0.028 | IRAK-1-4 Inhibitor I -0.005

FBXO3 (UniProt Q9UK99)
inactive: erlotinib -0.043 | [1] 0.041 | [2] 0.119 | [3] 0.015 | [4] 0.012 | [5] -0.024 | [6] -0.048 | [7] -0.008 | [8] 0.038 | IRAK-1-4 Inhibitor I -0.012

FLCN (UniProt Q8NFG4)
inactive: erlotinib 0.02 | [1] -0.011 | [2] 0.086 | [3] -0.002 | [4] -0.028 | [5] 0.017 | [6] -0.028 | [7] 0.034 | [8] -0.038 | IRAK-1-4 Inhibitor I 0.06

FEZ2 isoform 2 (UniProt Q9UHY8)
inactive: erlotinib 0.015 | [1] 0.099 | [2] 0.021 | [3] 0.046 | [4] -0.017 | [5] 0.029 | [6] -0.024 | [7] 0.006 | [8] 0.048 | IRAK-1-4 Inhibitor I 0.024

FCGR2A (UniProt P12318)
inactive: erlotinib -0.025 | [1] -0.021 | [2] 0.048 | [3] -0.028 | [4] -0.013 | [5] -0.067 | [6] 0.008 | [7] 0.014 | [8] 0.027 | IRAK-1-4 Inhibitor I 0.028
